Measurements: article PMC12162846
Results are given in words; binding and its absence hold for the method and conditions named. For part of these data: A result given as binding can be weak or reduced; the word gives no strength. For part of these data: Sequences can lack the tags named with a protein. For part of these data: Binding seen in cells or lysates may run through a third protein. Values belong to the substance of their own block, whether it stands above or below them.

Amino acid sequences for entries named in this document (tags omitted). A change or cut given only in a name is not applied to a line headed by its entry.
UniProt Q00987: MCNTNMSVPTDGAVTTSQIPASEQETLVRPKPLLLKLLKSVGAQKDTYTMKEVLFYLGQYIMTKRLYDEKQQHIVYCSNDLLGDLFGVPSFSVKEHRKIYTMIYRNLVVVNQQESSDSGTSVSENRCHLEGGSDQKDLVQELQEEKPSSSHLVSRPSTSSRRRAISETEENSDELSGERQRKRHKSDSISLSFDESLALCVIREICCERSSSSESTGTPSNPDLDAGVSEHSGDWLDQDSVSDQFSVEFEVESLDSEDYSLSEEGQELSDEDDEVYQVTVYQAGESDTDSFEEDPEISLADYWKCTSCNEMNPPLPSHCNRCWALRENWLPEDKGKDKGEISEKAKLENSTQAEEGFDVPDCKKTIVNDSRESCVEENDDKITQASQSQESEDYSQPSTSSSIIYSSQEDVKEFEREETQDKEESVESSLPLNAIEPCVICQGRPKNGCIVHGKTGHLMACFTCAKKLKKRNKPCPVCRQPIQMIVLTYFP

Columns and labels:
Flag-TRIM26 [1] = biological target: T1, Flag-TRIM26 (UniProt Q12899); assay: co-IP; HCT116 p53+/+ cells transfected with GFP-p53 or HA-MDM2 and Flag-TRIM26 for 48 h, cell fractionation; nuclear fraction, Flag beads, Western blot
T1 sequence: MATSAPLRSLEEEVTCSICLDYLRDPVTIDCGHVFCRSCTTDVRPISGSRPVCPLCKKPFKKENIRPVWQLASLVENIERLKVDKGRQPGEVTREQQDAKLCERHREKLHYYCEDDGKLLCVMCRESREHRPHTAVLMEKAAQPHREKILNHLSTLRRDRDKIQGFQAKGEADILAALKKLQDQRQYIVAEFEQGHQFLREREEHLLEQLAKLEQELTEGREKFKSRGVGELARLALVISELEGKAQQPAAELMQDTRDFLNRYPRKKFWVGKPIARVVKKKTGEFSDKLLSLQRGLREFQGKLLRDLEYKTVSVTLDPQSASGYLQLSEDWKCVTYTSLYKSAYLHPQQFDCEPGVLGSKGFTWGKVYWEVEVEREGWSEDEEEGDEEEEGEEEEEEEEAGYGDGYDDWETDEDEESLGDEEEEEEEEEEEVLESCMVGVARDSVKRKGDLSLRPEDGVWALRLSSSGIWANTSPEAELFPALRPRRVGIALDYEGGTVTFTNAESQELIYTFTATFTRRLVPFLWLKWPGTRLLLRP

Flag-TRIM26 [2] = biological target: T1, Flag-TRIM26; assay: co-IP; HCT116 p53+/+ cells transfected with GFP-p53 or HA-MDM2 and Flag-TRIM26 for 48 h, cell fractionation; cytosolic fraction, Flag beads, Western blot
[3] = biological target: T2, GST-TRIM26 C-terminal PRYSPRY domain (aa301-539) (UniProt Q12899); assay: pull-down; GST-TRIM26 fragments on beads, incubated with His-p53 or His-MDM2 at RT for 40 min; bound protein detected by Western blot with His antibody; both purified
T2 sequence: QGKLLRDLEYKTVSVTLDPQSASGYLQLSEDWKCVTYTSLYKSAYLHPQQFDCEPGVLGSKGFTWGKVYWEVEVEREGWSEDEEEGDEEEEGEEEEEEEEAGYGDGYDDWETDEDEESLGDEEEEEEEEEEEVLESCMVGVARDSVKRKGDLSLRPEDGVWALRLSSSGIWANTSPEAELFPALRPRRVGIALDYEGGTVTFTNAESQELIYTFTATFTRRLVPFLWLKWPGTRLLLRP

[4] = biological target: T3, GST-TRIM26 N-terminal fragment (aa1-150) (UniProt Q12899); assay: as above
T3 sequence: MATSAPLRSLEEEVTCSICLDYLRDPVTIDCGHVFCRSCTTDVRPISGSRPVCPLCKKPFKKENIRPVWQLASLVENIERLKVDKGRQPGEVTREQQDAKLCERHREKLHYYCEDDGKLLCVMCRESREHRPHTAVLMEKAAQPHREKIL

[5] = biological target: T4, GST-TRIM26 N-terminal domain (aa1-300) containing the coiled-coil domain (UniProt Q12899); assay: as above
T4 sequence: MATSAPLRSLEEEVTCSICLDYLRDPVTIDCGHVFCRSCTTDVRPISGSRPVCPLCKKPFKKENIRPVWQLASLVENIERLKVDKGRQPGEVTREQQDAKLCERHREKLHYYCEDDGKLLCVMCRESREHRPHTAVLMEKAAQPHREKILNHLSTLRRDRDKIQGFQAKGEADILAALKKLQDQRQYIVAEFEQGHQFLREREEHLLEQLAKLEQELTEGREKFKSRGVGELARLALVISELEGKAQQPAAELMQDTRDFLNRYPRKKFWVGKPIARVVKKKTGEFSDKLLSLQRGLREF

[6] = biological target: T5, Tripartite motif-containing protein 26 (endogenous) (human (endogenous in HCT116)) (UniProt Q12899); assay: co-IP; endogenous proteins of HCT116 p53+/+ cells; precipitated with TRIM26, p53 or MDM2 antibodies, Western blot
T5 sequence: T1 sequence

binding (Flag-TRIM26 [1]): no binding (only nuclear fraction)
binding (Flag-TRIM26 [2]): binds
Substance: HA-MDM2 (from UniProt Q00987)

binding [3]: no binding
binding [4]: no binding
binding [5]: binds
Substance: His-MDM2 (from UniProt Q00987)

binding [6]: binds
Substance: MDM2 (endogenous) (from UniProt Q00987)
